From paper PMC12110989 come the findings set out here.

No constants are given. Whether binding was seen depends on the method and setting. Binding seen in cells or lysates may run through a third protein. Tags and fused reporters may be left off the sequences shown.

This experiment deals with T1, AtRLP23 fused to YNE (A. thaliana) (UniProt O48849).
T1 sequence: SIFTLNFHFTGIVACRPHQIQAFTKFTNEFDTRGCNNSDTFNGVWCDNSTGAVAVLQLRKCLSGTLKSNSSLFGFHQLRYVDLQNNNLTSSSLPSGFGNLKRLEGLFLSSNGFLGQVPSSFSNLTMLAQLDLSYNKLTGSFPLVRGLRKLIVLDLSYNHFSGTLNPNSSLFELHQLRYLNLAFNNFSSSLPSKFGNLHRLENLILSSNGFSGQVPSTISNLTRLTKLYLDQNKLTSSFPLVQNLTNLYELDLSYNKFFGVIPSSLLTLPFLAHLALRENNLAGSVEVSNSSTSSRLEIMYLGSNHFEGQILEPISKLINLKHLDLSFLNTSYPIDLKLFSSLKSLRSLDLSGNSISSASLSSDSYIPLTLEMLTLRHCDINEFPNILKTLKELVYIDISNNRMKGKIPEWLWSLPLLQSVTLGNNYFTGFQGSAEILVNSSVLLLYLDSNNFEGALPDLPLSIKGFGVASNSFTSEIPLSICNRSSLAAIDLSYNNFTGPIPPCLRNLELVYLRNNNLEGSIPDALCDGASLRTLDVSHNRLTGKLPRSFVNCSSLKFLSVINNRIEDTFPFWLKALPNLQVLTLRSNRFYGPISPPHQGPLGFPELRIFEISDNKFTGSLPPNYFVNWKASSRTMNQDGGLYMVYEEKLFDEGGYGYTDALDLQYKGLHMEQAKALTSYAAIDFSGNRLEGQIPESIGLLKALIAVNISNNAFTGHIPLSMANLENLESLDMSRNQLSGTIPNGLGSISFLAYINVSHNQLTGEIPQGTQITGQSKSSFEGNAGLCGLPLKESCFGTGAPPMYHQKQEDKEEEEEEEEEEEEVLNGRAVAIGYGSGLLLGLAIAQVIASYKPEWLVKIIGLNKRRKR
Put plainly: split reporter; BiFC with YNE and YCE halves of YFP (pSPYNE, pSPYCE), co-infiltrated by Agrobacterium GV3101 into N. benthamiana leaves, imaged 36-72 h after infiltration.

Regarding SsNEP2 fused to YCE (S. sclerotiorum), the binding result was “no binding”.
